Data: PubChem BioAssay AID188 (DTP/NCI, 2004)
Shown are survivors of the treated group in tumour-free mice. Survivors were counted at the toxicity check, usually on the fifth day, unless a day is given; later deaths do not show. Schedules are NCI's codes, taken here to give the interval after Q, in days (D) or hours (H), and the number of doses after X. Some entries hold several experiments; the values are given in rising order.

System: CD2F1 mice, nontumored, toxicity/survival
Assay: NCI In Vivo Anticancer Drug Screen. Data for tumor model Nontumored Animals (Toxicity Test) in CD2F1 (CDF1) mice

SMILES: CC(C)[C@]12O[C@H]1[C@@H]1O[C@]13[C@]1(O[C@H]1C[C@H]1C4=C(C(=O)OC4)[C@@H](O)C[C@@]13C)[C@@H]2O
- survivor count (dose: 0.03 mg/kg/injection, schedule: Q01DX009 (ip), vehicle: saline + alcohol): 8 of 8
- survivor count (dose: 0.06 mg/kg/injection, schedule: Q01DX009 (ip), vehicle: saline + alcohol): 8 of 8
- survivor count (dose: 0.13 mg/kg/injection, schedule: Q01DX009 (ip), vehicle: saline + alcohol): 7 of 8 and 8 of 8
- survivor count (dose: 0.25 mg/kg/injection, schedule: Q01DX009 (ip), vehicle: saline + alcohol): 7 of 8 and 8 of 8
- survivor count (dose: 0.5 mg/kg/injection, schedule: Q01DX009 (ip), vehicle: saline + alcohol): 3 of 8 and 8 of 8
- survivor count (dose: 1.0 mg/kg/injection, schedule: Q01DX009 (ip), vehicle: saline + alcohol): 0 of 8
- survivor count (dose: 8.0 micrograms/kg/injection, schedule: Q03HX024 (ip), vehicle: saline): 8 of 8
- survivor count (dose: 16.0 micrograms/kg/injection, schedule: Q03HX024 (ip), vehicle: saline): 8 of 8
- survivor count (dose: 30.0 micrograms/kg/injection, schedule: Q01DX009 (ip), vehicle: saline): 8 of 8
- survivor count (dose: 30.0 micrograms/kg/injection, schedule: Q01DX009 (sc), vehicle: saline): 8 of 8
- survivor count (dose: 30.0 micrograms/kg/injection, schedule: Q03HX024 (ip), vehicle: saline): 8 of 8
- survivor count (dose: 60.0 micrograms/kg/injection, schedule: Q01DX009 (ip), vehicle: saline): 8 of 8
- survivor count (dose: 60.0 micrograms/kg/injection, schedule: Q01DX009 (sc), vehicle: saline): 8 of 8
- survivor count (dose: 60.0 micrograms/kg/injection, schedule: Q03HX024 (ip), vehicle: saline): 8 of 8
- survivor count (dose: 130.0 micrograms/kg/injection, schedule: Q01DX009 (ip), vehicle: saline): 8 of 8
- survivor count (dose: 130.0 micrograms/kg/injection, schedule: Q01DX009 (sc), vehicle: saline): 8 of 8
- survivor count (dose: 130.0 micrograms/kg/injection, schedule: Q03HX024 (ip), vehicle: saline): 5 of 8
- survivor count (dose: 250.0 micrograms/kg/injection, schedule: Q01DX009 (ip), vehicle: saline): 8 of 8
- survivor count (dose: 250.0 micrograms/kg/injection, schedule: Q01DX009 (sc), vehicle: saline): 8 of 8
- survivor count (dose: 500.0 micrograms/kg/injection, schedule: Q01DX009 (ip), vehicle: saline): 7 of 8
- survivor count (dose: 500.0 micrograms/kg/injection, schedule: Q01DX009 (sc), vehicle: saline): 8 of 8

SMILES: O=P1(NCCCl)OCCCN1CCCl (stereo unspecified)
- survivor count (dose: 133.0 mg/kg/injection, schedule: Q01DX001 (ip), vehicle: saline): 10 of 10
- survivor count (dose: 200.0 mg/kg/injection, schedule: Q01DX001 (ip), vehicle: saline): 10 of 10
- survivor count (dose: 300.0 mg/kg/injection, schedule: Q01DX001 (ip), vehicle: saline): 10 of 10
- survivor count (dose: 450.0 mg/kg/injection, schedule: Q01DX001 (ip), vehicle: saline): 10 of 10

SMILES: Nc1nc(N)c2nc(-c3ccc(Cl)c(Cl)c3)c(N)nc2n1
- survivor count (dose: 1.0 mg/kg/injection, schedule: Q01DX001 (ip), vehicle: water): 2 of 2
- survivor count (dose: 10.0 mg/kg/injection, schedule: Q01DX001 (ip), vehicle: water): 2 of 2
- survivor count (dose: 100.0 mg/kg/injection, schedule: Q01DX001 (ip), vehicle: water): 2 of 2

SMILES: CC1=CC(C)(C)Nc2ccc(Cc3ccc4c(c3)C(C)=CC(C)(C)N4)cc21
- survivor count (dose: 838.0 mg/kg/injection, schedule: Q01DX001 (ip), vehicle: saline): 10 of 10
- survivor count (dose: 838.0 mg/kg/injection, schedule: Q01DX001 (ip), vehicle: saline with Tween-80): 9 of 10
- survivor count (dose: 1048.0 mg/kg/injection, schedule: Q01DX001 (ip), vehicle: saline): 10 of 10
- survivor count (dose: 1048.0 mg/kg/injection, schedule: Q01DX001 (ip), vehicle: saline with Tween-80): 9 of 10
- survivor count (dose: 1310.0 mg/kg/injection, schedule: Q01DX001 (ip), vehicle: saline): 9 of 10
- survivor count (dose: 1310.0 mg/kg/injection, schedule: Q01DX001 (ip), vehicle: saline with Tween-80): 8 of 10
- survivor count (dose: 1638.0 mg/kg/injection, schedule: Q01DX001 (ip), vehicle: saline): 7 of 10
- survivor count (dose: 1638.0 mg/kg/injection, schedule: Q01DX001 (ip), vehicle: saline with Tween-80): 5 of 10
- survivor count (dose: 2048.0 mg/kg/injection, schedule: Q01DX001 (ip), vehicle: other): 10 of 10
- survivor count (dose: 2048.0 mg/kg/injection, schedule: Q01DX001 (ip), vehicle: saline): 9 of 10
- survivor count (dose: 2048.0 mg/kg/injection, schedule: Q01DX001 (ip), vehicle: saline with Tween-80): 2 of 10
- survivor count (dose: 2048.0 mg/kg/injection, schedule: Q01DX001 (oral), vehicle: other): 10 of 10
- survivor count (dose: 2048.0 mg/kg/injection, schedule: Q01DX001 (sc), vehicle: other): 10 of 10
- survivor count (dose: 2560.0 mg/kg/injection, schedule: Q01DX001 (ip), vehicle: other): 10 of 10
- survivor count (dose: 2560.0 mg/kg/injection, schedule: Q01DX001 (ip), vehicle: saline): 5 of 10
- survivor count (dose: 2560.0 mg/kg/injection, schedule: Q01DX001 (ip), vehicle: saline with Tween-80): 1 of 10
- survivor count (dose: 2560.0 mg/kg/injection, schedule: Q01DX001 (oral), vehicle: other): 10 of 10
- survivor count (dose: 2560.0 mg/kg/injection, schedule: Q01DX001 (sc), vehicle: other): 10 of 10
- survivor count (dose: 3200.0 mg/kg/injection, schedule: Q01DX001 (ip), vehicle: other): 10 of 10
- survivor count (dose: 3200.0 mg/kg/injection, schedule: Q01DX001 (ip), vehicle: saline with Tween-80): 0 of 10
- survivor count (dose: 3200.0 mg/kg/injection, schedule: Q01DX001 (oral), vehicle: other): 10 of 10
- survivor count (dose: 3200.0 mg/kg/injection, schedule: Q01DX001 (sc), vehicle: other): 10 of 10
- survivor count (dose: 4000.0 mg/kg/injection, schedule: Q01DX001 (ip), vehicle: other): 10 of 10
- survivor count (dose: 4000.0 mg/kg/injection, schedule: Q01DX001 (ip), vehicle: saline with Tween-80): 0 of 10
- survivor count (dose: 4000.0 mg/kg/injection, schedule: Q01DX001 (oral), vehicle: other): 10 of 10
- survivor count (dose: 4000.0 mg/kg/injection, schedule: Q01DX001 (sc), vehicle: other): 10 of 10
- survivor count (dose: 4000.0 mg/kg/injection, schedule: Q01DX005 (ip), vehicle: other): 9 of 10
- survivor count (dose: 4000.0 mg/kg/injection, schedule: Q01DX005 (oral), vehicle: other): 1 of 10
- survivor count (dose: 4000.0 mg/kg/injection, schedule: Q01DX005 (sc), vehicle: other): 10 of 10
- survivor count (dose: 5000.0 mg/kg/injection, schedule: Q01DX001 (ip), vehicle: other): 9 of 10
- survivor count (dose: 5000.0 mg/kg/injection, schedule: Q01DX001 (ip), vehicle: saline with Tween-80): 0 of 10
- survivor count (dose: 5000.0 mg/kg/injection, schedule: Q01DX001 (oral), vehicle: other): 10 of 10
- survivor count (dose: 5000.0 mg/kg/injection, schedule: Q01DX001 (sc), vehicle: other): 10 of 10
- survivor count (dose: 5000.0 mg/kg/injection, schedule: Q01DX005 (ip), vehicle: other): 6 of 10
- survivor count (dose: 5000.0 mg/kg/injection, schedule: Q01DX005 (oral), vehicle: other): 0 of 10
- survivor count (dose: 5000.0 mg/kg/injection, schedule: Q01DX005 (sc), vehicle: other): 10 of 10
- survivor count (dose: 6250.0 mg/kg/injection, schedule: Q01DX001 (ip), vehicle: other): 6 of 10
- survivor count (dose: 6250.0 mg/kg/injection, schedule: Q01DX001 (oral), vehicle: other): 9 of 10
- survivor count (dose: 6250.0 mg/kg/injection, schedule: Q01DX001 (sc), vehicle: other): 10 of 10
- survivor count (dose: 6250.0 mg/kg/injection, schedule: Q01DX005 (ip), vehicle: other): 0 of 10
- survivor count (dose: 6250.0 mg/kg/injection, schedule: Q01DX005 (oral), vehicle: other): 0 of 10
- survivor count (dose: 6250.0 mg/kg/injection, schedule: Q01DX005 (sc), vehicle: other): 9 of 10

SMILES: O=C(CCl)Nc1ccc(-c2c(NC(=O)CCl)ncc3ccccc23)cc1
- survivor count (dose: 1.0 mg/kg/injection, schedule: Q01DX001 (ip), vehicle: DMSO): 2 of 2
- survivor count (dose: 1.0 mg/kg/injection, schedule: Q01DX001 (ip), vehicle: olive oil, sesame oil, peanut oil): 2 of 2
- survivor count (dose: 10.0 mg/kg/injection, schedule: Q01DX001 (ip), vehicle: DMSO): 2 of 2
- survivor count (dose: 10.0 mg/kg/injection, schedule: Q01DX001 (ip), vehicle: olive oil, sesame oil, peanut oil): 2 of 2
- survivor count (dose: 100.0 mg/kg/injection, schedule: Q01DX001 (ip), vehicle: DMSO): 2 of 2
- survivor count (dose: 100.0 mg/kg/injection, schedule: Q01DX001 (ip), vehicle: olive oil, sesame oil, peanut oil): 2 of 2

SMILES: Cc1ccc(N=NN(C)C)cc1
- survivor count (dose: 59.0 mg/kg/injection, schedule: Q01DX009 (ip), vehicle: Klucel (hydroxypropylcellulose) (HPC)): 10 of 10
- survivor count (dose: 89.0 mg/kg/injection, schedule: Q01DX009 (ip), vehicle: Klucel (hydroxypropylcellulose) (HPC)): 9 of 10
- survivor count (dose: 133.0 mg/kg/injection, schedule: Q01DX009 (ip), vehicle: Klucel (hydroxypropylcellulose) (HPC)): 5 of 10
- survivor count (dose: 200.0 mg/kg/injection, schedule: Q01DX009 (ip), vehicle: Klucel (hydroxypropylcellulose) (HPC)): 0 of 10
- survivor count (dose: 300.0 mg/kg/injection, schedule: Q01DX009 (ip), vehicle: Klucel (hydroxypropylcellulose) (HPC)): 0 of 10
